Where a chain is given by its changes, count along the chain named. Results are given in words; binding and its absence hold for the method and conditions named. Some entries that bind do so weakly or less than the wild type.

Amino acid sequences for entries named in this document (tags omitted). A change or cut given only in a name is not applied to a line headed by its entry.
UniProt P28907: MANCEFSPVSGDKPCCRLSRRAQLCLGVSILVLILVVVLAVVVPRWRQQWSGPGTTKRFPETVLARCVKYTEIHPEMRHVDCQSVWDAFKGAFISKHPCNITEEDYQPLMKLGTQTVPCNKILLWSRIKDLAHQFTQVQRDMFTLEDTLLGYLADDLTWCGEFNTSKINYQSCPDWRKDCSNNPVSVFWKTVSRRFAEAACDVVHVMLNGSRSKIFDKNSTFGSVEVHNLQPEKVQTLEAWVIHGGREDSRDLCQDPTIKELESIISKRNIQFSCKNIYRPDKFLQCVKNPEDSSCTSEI

We go through four molecules from patent US20220275100A1.

Sequences and labels used below:
B1: h011-02 (antibody, human IgG1, kappa, V domains shown)
VH: EVQLVESGGGLVQPGGSLRLSCAASGFTFSDYGMHWVRQAPGKGLEWVAFISSGSSSIYYADTVKGRFTISRDNAKSSLFLQMTSLRAEDTAVYSCARNYVSSYGYFDYWGQGTTVTVSS
VL: DIVMTQSPDSLAVSLGERATINCRASENVDNYGISFMHWYQQKPGQPPKLLIYRASNLESGVPDRFSGSGSGTDFTLTISSLQAEDVAVYYCQQSNKDPLTFGGGTKVEIKR
B2: h011-03 (antibody, human IgG1, kappa, V domains shown)
VH: B1 VH with F80Y, S95Y
VL: B1 VL with G72R
B3: h011-04 (antibody, human IgG1, kappa, V domains shown)
VH: B1 VH
VL: B1 VL with G72R
B4: h011-05 (antibody, human IgG1, kappa, V domains shown)
VH: B1 VH with F80Y, S95Y
VL: B1 VL with V62I, G72R, V89T

This experiment deals with Fusion protein of CD38 extracellular domain with His tag: CD38-ECD-His (human) (UniProt P28907). The experiment in a line: SPR (Biacore).
Regarding B1, the binding entry is reported as “binds”. Then B2, with “binds”; and B3, with “binds”; and B4, with “binds”.
